According to the supplement of paper PMC11006884:
What follows is the remainder of the data, with few or none of the targets with a hit. This is a noisy data set. The list shows a part of the results, in another mix than the full data.

Chains of the proteins cited; added tags and fusions are not shown. Lines headed by an entry give the natural chain unless they say otherwise; changes in a name come on top.
UniProt O75376, whole entry, looked up: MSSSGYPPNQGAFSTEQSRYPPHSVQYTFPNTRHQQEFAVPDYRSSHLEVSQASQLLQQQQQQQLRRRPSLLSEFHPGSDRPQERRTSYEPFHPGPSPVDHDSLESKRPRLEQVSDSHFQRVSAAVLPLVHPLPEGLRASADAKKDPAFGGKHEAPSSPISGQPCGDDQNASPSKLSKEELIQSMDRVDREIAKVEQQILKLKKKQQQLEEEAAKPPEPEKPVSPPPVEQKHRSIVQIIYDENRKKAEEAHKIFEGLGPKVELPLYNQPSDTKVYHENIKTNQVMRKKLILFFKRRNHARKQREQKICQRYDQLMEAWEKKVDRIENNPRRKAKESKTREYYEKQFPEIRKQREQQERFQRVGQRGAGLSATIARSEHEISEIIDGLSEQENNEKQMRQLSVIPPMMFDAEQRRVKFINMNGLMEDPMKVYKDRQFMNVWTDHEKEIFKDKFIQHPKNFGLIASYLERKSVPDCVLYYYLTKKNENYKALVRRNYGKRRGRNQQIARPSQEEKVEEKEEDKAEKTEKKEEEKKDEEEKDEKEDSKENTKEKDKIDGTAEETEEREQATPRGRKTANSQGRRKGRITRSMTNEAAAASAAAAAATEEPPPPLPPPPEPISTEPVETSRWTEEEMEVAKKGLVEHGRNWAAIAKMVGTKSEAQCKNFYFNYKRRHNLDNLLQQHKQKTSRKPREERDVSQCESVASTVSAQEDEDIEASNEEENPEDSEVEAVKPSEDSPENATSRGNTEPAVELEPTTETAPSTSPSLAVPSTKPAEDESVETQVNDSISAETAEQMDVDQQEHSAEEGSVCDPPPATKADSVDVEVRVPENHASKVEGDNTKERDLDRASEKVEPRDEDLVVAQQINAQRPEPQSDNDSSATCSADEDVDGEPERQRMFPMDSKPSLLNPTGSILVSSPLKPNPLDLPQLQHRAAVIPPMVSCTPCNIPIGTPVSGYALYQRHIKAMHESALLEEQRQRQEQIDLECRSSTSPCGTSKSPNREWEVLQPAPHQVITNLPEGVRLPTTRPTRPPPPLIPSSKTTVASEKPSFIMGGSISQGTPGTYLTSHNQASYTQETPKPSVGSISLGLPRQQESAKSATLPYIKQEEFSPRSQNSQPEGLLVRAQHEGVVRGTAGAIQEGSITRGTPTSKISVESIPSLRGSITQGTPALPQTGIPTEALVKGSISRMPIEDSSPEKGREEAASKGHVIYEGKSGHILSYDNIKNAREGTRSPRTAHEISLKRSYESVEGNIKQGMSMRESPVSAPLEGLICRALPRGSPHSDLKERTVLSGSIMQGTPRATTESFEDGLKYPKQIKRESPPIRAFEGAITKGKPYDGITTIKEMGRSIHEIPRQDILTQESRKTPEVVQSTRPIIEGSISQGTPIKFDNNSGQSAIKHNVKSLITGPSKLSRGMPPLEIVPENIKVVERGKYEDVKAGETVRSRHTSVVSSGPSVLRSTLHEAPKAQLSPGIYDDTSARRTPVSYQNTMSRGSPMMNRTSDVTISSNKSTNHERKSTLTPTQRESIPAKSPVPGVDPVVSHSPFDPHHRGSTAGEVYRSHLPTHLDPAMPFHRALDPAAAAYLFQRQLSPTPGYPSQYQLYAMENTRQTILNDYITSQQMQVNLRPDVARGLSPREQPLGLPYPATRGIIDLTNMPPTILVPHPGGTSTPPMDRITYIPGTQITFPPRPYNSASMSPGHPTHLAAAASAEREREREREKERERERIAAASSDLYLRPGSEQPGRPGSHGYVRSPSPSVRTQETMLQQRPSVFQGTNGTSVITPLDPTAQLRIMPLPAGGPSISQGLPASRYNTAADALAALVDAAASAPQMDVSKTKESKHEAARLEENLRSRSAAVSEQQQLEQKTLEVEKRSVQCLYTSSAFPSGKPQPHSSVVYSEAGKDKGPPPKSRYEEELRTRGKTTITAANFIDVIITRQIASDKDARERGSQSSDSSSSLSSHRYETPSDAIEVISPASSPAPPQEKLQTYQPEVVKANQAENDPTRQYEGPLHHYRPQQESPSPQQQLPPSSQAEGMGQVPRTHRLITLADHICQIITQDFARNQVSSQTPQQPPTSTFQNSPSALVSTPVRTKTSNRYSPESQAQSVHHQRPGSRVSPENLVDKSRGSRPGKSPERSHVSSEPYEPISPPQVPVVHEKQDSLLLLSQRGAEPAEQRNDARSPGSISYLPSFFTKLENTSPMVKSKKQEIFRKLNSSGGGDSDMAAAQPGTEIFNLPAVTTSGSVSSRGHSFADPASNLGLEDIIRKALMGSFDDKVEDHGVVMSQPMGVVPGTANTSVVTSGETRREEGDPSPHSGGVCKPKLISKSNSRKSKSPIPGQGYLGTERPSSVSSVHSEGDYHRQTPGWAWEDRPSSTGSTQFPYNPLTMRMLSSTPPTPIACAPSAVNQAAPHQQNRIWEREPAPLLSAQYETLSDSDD
UniProt O43663: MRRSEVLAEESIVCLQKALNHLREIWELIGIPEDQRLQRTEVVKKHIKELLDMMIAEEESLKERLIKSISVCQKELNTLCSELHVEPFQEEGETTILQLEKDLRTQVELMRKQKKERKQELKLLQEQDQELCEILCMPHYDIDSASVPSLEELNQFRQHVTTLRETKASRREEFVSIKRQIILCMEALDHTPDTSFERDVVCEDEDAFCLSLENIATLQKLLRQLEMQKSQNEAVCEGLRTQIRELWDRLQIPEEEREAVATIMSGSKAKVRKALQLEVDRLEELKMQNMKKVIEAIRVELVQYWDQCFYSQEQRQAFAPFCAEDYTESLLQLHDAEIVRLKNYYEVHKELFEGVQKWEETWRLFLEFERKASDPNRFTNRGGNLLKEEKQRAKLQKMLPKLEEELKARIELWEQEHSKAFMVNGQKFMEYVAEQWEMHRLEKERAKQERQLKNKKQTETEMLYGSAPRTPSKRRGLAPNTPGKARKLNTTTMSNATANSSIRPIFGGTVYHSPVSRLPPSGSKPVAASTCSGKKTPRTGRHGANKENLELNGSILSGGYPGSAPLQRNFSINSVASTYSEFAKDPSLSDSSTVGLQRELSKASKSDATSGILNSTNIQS
UniProt O43252: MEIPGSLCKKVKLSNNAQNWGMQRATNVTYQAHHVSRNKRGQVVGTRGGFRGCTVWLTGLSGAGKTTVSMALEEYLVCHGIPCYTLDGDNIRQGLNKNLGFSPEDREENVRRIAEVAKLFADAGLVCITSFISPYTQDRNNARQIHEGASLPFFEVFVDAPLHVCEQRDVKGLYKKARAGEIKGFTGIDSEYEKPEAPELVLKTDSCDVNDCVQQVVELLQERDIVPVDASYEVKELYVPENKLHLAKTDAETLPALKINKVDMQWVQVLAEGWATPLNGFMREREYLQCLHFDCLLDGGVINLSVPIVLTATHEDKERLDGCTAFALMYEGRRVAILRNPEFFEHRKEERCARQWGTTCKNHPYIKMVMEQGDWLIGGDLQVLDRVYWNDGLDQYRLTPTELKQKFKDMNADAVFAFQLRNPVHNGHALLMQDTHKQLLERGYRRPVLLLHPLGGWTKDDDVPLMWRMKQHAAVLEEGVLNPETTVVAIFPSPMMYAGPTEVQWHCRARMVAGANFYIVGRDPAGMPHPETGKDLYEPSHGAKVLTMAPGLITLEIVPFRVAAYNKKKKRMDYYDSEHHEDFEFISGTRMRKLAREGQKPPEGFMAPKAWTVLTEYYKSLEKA
UniProt O60343: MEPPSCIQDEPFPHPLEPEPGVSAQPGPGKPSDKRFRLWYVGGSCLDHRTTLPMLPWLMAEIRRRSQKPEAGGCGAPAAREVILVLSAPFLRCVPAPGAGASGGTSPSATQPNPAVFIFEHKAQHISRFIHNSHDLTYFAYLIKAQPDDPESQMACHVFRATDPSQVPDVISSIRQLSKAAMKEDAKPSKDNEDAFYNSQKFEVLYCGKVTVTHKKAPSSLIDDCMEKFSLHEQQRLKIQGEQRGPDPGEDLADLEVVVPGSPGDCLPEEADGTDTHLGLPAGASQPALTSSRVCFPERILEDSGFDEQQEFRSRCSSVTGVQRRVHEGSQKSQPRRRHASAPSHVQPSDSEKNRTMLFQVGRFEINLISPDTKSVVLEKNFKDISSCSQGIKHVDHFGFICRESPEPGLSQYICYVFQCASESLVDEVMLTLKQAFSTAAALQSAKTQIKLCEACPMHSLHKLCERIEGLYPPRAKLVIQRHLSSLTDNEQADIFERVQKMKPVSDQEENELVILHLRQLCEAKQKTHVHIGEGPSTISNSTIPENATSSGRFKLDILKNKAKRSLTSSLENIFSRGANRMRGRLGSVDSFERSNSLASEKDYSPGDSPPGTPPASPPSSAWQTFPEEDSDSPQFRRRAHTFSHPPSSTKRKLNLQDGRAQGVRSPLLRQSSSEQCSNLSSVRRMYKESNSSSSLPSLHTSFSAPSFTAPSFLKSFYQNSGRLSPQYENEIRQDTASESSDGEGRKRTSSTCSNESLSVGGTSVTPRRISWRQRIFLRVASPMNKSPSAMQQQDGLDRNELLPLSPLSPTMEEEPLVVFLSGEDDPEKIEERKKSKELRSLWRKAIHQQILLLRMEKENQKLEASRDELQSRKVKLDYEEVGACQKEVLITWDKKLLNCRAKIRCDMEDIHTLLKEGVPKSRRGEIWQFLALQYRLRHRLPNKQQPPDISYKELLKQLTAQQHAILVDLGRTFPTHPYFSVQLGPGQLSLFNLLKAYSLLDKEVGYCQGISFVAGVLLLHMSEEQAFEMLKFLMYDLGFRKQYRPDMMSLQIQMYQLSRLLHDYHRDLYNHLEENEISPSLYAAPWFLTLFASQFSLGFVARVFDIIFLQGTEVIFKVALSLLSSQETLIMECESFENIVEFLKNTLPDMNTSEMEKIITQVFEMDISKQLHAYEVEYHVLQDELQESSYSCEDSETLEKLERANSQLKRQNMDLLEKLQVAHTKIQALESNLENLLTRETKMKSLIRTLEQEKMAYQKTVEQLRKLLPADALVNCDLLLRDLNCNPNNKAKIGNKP
UniProt O43837: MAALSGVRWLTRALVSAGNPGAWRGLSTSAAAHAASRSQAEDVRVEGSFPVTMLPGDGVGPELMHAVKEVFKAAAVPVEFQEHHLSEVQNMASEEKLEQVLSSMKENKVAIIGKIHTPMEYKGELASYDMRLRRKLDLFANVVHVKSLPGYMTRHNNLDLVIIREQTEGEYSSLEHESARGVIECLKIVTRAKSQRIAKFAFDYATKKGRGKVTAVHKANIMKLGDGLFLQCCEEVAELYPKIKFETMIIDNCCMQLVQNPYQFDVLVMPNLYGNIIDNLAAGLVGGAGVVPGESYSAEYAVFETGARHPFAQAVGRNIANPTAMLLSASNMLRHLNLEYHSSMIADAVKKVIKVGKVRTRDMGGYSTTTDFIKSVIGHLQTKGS
UniProt O60841: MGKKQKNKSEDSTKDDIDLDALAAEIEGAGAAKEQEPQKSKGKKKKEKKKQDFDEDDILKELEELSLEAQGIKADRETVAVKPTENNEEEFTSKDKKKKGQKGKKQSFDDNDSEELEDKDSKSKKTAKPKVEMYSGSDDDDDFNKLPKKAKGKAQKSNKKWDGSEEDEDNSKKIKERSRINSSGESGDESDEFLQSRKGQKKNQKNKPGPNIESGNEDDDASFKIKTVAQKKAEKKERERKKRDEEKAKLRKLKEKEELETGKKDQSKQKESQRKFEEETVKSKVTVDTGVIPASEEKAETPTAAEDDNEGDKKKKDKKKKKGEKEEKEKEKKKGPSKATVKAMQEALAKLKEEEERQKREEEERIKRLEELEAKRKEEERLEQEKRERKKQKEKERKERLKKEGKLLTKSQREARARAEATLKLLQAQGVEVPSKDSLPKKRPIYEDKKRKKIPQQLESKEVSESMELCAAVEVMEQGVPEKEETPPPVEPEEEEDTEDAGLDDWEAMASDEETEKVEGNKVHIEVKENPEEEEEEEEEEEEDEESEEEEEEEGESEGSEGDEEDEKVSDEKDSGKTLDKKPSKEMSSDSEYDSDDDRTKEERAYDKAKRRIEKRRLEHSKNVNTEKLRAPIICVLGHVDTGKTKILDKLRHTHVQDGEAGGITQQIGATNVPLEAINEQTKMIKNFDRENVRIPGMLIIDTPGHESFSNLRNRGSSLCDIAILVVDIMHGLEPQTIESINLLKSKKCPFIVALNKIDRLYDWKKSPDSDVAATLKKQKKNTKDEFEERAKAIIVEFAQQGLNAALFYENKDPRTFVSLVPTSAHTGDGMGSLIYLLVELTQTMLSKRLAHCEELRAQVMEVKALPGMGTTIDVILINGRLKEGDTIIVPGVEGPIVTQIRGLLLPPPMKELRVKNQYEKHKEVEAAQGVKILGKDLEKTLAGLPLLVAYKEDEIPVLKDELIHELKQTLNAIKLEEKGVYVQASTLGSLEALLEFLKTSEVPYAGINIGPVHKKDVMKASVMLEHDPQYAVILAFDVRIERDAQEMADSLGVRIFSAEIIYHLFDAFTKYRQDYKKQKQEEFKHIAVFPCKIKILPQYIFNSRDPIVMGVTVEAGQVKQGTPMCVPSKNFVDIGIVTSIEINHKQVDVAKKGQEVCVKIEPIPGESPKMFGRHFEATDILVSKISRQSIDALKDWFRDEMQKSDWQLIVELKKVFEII

Compound: COC(=O)/C=C/c1ccccc1 [methyl cinnamate]
Assay: log2 ratio of iodoacetamide-alkyne labeling of the cysteine site, DMSO over compound (competition); higher = stronger covalent engagement of the cysteine by the compound, active = 1 or more
Conditions: 500 µM; treatment time 1 h; system: HEK293T cell lysate
How it was run: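 Reporter intensities give each cysteine's log2 competition ratio as the mean of control channels over the mean of compound channels. The samples were HEK293T lysate (2 mg/mL) given vehicle or electrophile (500 µM, 1 h, ambient temperature), then iodoacetamide alkyne (1 h), followed by click coupling to sCIP-TMT reagents, pooling, trypsin digestion overnight at 37 °C, streptavidin enrichment, acid elution, Orbitrap Eclipse LC-MS/MS with FAIMS and FragPipe quantification. Duplicate channels and three replicates were run, and cysteines quantified in only one replicate were discarded.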

Row | Target | log2 ratio of iodoacetamide-alkyne labeling
1 | NCOR1 C1274 (UniProt O75376) | inactive: 0.164
2 | PRC1 C132 (UniProt O43663) | inactive: 0.188
3 | PRPF3 C37 (UniProt O43395) | inactive: 0.0709
4 | RAD21 C392 (UniProt O60216) | inactive: 0.163
5 | USO1 C27 (UniProt O60763) | inactive: 0.254
6 | ANKRD17 C58 (UniProt O75179) | inactive: 0.616
7 | PAPSS1 C212 (UniProt O43252) | inactive: -0.0115
8 | ERAL1 C278 (UniProt O75616) | inactive: -0.0121
9 | TBC1D4 C1277 (UniProt O60343) | inactive: 0.221
10 | IDH3B C185 (UniProt O43837) | inactive: 0.262
11 | CCDC22 C369 (UniProt O60826) | inactive: 0.326
12 | TBC1D4 C6 (UniProt O60343) | inactive: -0.00232
13 | NMT2 C104 (UniProt O60551) | inactive: 0.279
14 | EIF5B C635 (UniProt O60841) | inactive: 0.104
15 | AKAP8 C173 (UniProt O43823) | inactive: 0.261

Quoted from above: entries 5–6
Row | Target | log2 ratio of iodoacetamide-alkyne labeling
5 | USO1 C27 (UniProt O60763) | inactive: 0.254
6 | ANKRD17 C58 (UniProt O75179) | inactive: 0.616
